Experiment [1] addresses SSRP1 (human (endogenous in HeLa and U2OS)) (UniProt Q08945). Briefly: co-IP; SSRP1 antibodies, low-salt and high-salt extracts of untagged U2OS cells; also asynchronous and S-phase-synchronized populations (Supplemental Fig. S3e).
A further experiment deals with CENP-S/-X (UniProt Q8N2Z9). Kind of experiment: condition: 2.2 mM Spt16-CTD injected into 150 µM CENP-S/-X; ITC; Spt16-CTD (amino acids 926–965; 2.2 mM) injected into 200 µL of 150 µM CENP-T/-W, human H2A/H2B or CENP S/X; 20°C; 20 mM Tris pH 7.5, 0.2 M NaCl; single-site model for CENP-T/-W, two-site model for H2A/H2B; both purified.

The chains behind the UniProt entries cited, without tags or fusion partners. Residues count along the entry.
UniProt Q8N2Z9: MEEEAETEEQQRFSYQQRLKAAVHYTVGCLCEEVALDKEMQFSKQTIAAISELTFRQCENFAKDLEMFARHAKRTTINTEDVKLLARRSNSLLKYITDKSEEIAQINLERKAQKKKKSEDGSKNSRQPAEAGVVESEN
UniProt Q9Y5B9, residues 926-965: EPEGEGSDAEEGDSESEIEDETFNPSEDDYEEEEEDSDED

Results are given in words; binding and its absence hold for the method and conditions named. For part of these data: In cells and extracts the contact can be indirect.

Take CENP-S (from UniProt Q8N2Z9 1-138): the binding result in experiment [1] is recorded as “no binding”.
Turning to “Spt16-CTD (Spt16 amino acids 926–965) (from UniProt Q9Y5B9 926-965) (domain or fragment)”, the binding result with CENP-S/-X is recorded as “no binding”.
With “CenH3^CENP-A (from UniProt P49450 1-140) (other; other documents disagree on this pair)”, the binding entry in experiment [1] is listed as “no binding”.

These data come from paper PMC4911930.
